Assay results: patent US8642012B2, “Methods of treatment using ammonia-scavenging drugs” (Hyperion Therapeutics, Inc., priority 2008, dated 2014)
At least one structure is not confirmed: it was looked up by name or label, or the drawing left a doubt.

Test: PK/PD modeling (NONMEM VI) of plasma and urinary metabolite data from the clinical studies
Design: species or system human

SMILES: O=C(CCCc1ccccc1)OCC(COC(=O)CCCc1ccccc1)OC(=O)CCCc1ccccc1 [HPN-100, glyceryl tri-[4-phenylbutyrate]]
- Absorption rate constant: 0.544 h⁻¹
- Fraction of PBA converted pre-systemically (to PAA and PAGN): 31%
